Laboratory results taken from patent US20250283871A1, “COMPOSITIONS AND METHODS FOR MODULATING THE INTERACTION BETWEEN SS18-SSX FUSION ONCOPROTEIN AND NUCLEOSOMES” (Dana-Farber Cancer Institute, Inc., priority 2020, published 2025).

System: BAF complex subunits and histone proteins
Assay: Mass spectrometry proteomics of purified HA-SS18 WT and HA-SS18-SSX1 complexes (Tables 5A-5E)
Design: species or system human
Conditions: HEK-293T
[1] = HA-SS18SSX1_CHR_peptides: proteins found in HA-SS18-SSX1 BAF complex purification from solubilized chromatin (CHR)
[2] = HA-SS18WT_CHR_peptides: protein identified in HA-SS18 WT BAF complex purification from nuclease-treated solubilized chromatin (CHR)
[3] = HA-SS18SSX1 purification, NE (soluble nuclear extract) fraction, peptides per identified protein
[4] = HA-SS18WT_NE_peptides: HA-SS18 WT complexes purified from nuclear extract (NE), label = protein identified (Gene Symbol)

Molecule | Total (peptides) [1] | Unique (peptides) [1] | Total (total peptides) [2] | Unique (unique peptides) [2] | Total (total peptides) [3] | Unique (unique peptides) [3] | Total (peptides) [4] | Unique (peptides) [4]
ZFX (protein, UniProt P17010 1-805, looked up) Zinc finger X-chromosomal …: MDEDGLELQQEPNSFFDATGADGTHMDGDQIVVEVQETVFVSDVVDSDITVHNFVPDDPDSVVIQDVIEDVVIEDVQCPDIMEEADVSETVIIPEQVLDSDVTEEVSLAHCTVPDDVLASDITSASMSMPEHVLTGDSIHVSDVGHVGHVGHVEHVVHDSVVEAEIVTDPLTTDVVSEEVLVADCASEAVIDANGIPVDQQDDDKGNCEDYLMISLDDAGKIEHDGSSGMTMDTESEIDPCKVDGTCPEVIKVYIFKADPGEDDLGGTVDIVESEPENDHGVELLDQNSSIRVPREKMVYMTVNDSQPEDEDLNVAEIADEVYMEVIVGEEDAAAAAAAAAVHEQQMDDNEIKTFMPIAWAAAYGNNSDGIENRNGTASALLHIDESAGLGRLAKQKPKKRRRPDSRQYQTAIIIGPDGHPLTVYPCMICGKKFKSRGFLKRHMKNHPEHLAKKKYRCTDCDYTTNKKISLHNHLESHKLTSKAEKAIECDECGKHFSHAGALFTHKMVHKEKGANKMHKCKFCEYETAEQGLLNRHLLAVHSKNFPHICVECGKGFRHPSELKKHMRIHTGEKPYQCQYCEYRSADSSNLKTHVKTKHSKEMPFKCDICLLTFSDTKEVQQHALIHQESKTHQCLHCDHKSSNSSDLKRHIISVHTKDYPHKCDMCDKGFHRPSELKKHVAAHKGKKMHQCRHCDFKIADPFVLSRHILSVHTKDLPFRCKRCRKGFRQQSELKKHMKTHSGRKVYQCEYCEYSTTDASGFKRHVISIHTKDYPHRCEYCKKGFRRPSEKNQHIMRHHKEVGLP | 1 | 1 | 1 | 1 |  |  |  | 
PIP (protein, UniProt P12273 29-146, looked up) Prolactin-inducible protein: QDNTRKIIIKNFDIPKSVRPNDEVTAVLAVQTELKECMVVKTYLISSIPLQGAFNYKYTACLCDDNPKTFYWDFYTNRTVQIAAVVDVIRELGICPDDAAVIPIKNNRFYTIEILKVE | 1 | 1 |  |  |  |  |  | 
C1orf131 (protein, UniProt Q8NDD1 1-293, looked up) 40S small subunit processome …: MRVDSSADPTMSQEQGPGSSTPPSSPTLLDALLQNLYDFGGTEGETEQKKIIKKRENKKRDVMASAALAAEPSPLPGSLIRGQRKSASSFFKELREERHCAPSGTPTGPEILAAAVPPSSLKNNREQVEVVEFHSNKKRKLTPDHNKNTKQANPSVLERDVDTQEFNLEKARLEVHRFGITGYGKGKERILEQERAIMLGAKPPKKSYVNYKVLQEQIKEKKAAKEEEKRLAQETDIFKKKKRKGQEDRKSKKKSAPSILSNGRIGQVGKFKNGTLILSPVDIKKINSSRVAK | 1 | 1 |  |  |  |  |  | 
INA (protein, UniProt Q16352 1-499, looked up) Alpha-internexin: MSFGSEHYLCSSSSYRKVFGDGSRLSARLSGAGGAGGFRSQSLSRSNVASSAACSSASSLGLGLAYRRPPASDGLDLSQAAARTNEYKIIRTNEKEQLQGLNDRFAVFIEKVHQLETQNRALEAELAALRQRHAEPSRVGELFQRELRDLRAQLEEASSARSQALLERDGLAEEVQRLRARCEEESRGREGAERALKAQQRDVDGATLARLDLEKKVESLLDELAFVRQVHDEEVAELLATLQASSQAAAEVDVTVAKPDLTSALREIRAQYESLAAKNLQSAEEWYKSKFANLNEQAARSTEAIRASREEIHEYRRQLQARTIEIEGLRGANESLERQILELEERHSAEVAGYQDSIGQLENDLRNTKSEMARHLREYQDLLNVKMALDIEIAAYRKLLEGEETRFSTSGLSISGLNPLPNPSYLLPPRILSATTSKVSSTGLSLKKEEEEEEASKVASKKTSQIGESFEEILEETVISTKKTEKSNIEETTISSQKI | 1 | 1 | 1 | 1 |  |  |  | 
NUPL2 (protein, UniProt O15504 1-423, looked up) Nucleoporin NUP42: MAICQFFLQGRCRFGDRCWNEHPGARGAGGGRQQPQQQPSGNNRRGWNTTSQRYSNVIQPSSFSKSTPWGGSRDQEKPYFSSFDSGASTNRKEGFGLSENPFASLSPDEQKDEKKLLEGIVKDMEVWESSGQWMFSVYSPVKKKPNISGFTDISPEELRLEYHNFLTSNNLQSYLNSVQRLINQWRNRVNELKSLNISTKVALLSDVKDGVNQAAPAFGFGSSQAATFMSPGFPVNNSSSDNAQNFSFKTNSGFAAASSGSPAGFGSSPAFGAAASTSSGISTSAPAFGFGKPEVTSAASFSFKSPAASSFGSPGFSGLPASLATGPVRAPVAPAFGGGSSVAGFGSPGSHSHTAFSKPSSDTFGNSSISTSLSASSSIIATDNVLFTPRDKLTVEELEQFQSKKFTLGKIPLKPPPLELLNV | 1 | 1 |  |  |  |  |  | 
PRMT8 (protein, UniProt Q9NR22 2-394, looked up) Protein arginine …: GMKHSSRCLLLRRKMAENAAESTEVNSPPSQPPQPVVPAKPVQCVHHVSTQPSCPGRGKMSKLLNPEEMTSRDYYFDSYAHFGIHEEMLKDEVRTLTYRNSMYHNKHVFKDKVVLDVGSGTGILSMFAAKAGAKKVFGIECSSISDYSEKIIKANHLDNIITIFKGKVEEVELPVEKVDIIISEWMGYCLFYESMLNTVIFARDKWLKPGGLMFPDRAALYVVAIEDRQYKDFKIHWWENVYGFDMTCIRDVAMKEPLVDIVDPKQVVTNACLIKEVDIYTVKTEELSFTSAFCLQIQRNDYVHALVTYFNIEFTKCHKKMGFSTAPDAPYTHWKQTVFYLEDYLTVRRGEEIYGTISMKPNAKNVRDLDFTVDLDFKGQLCETSVSNDYKMR | 1 | 1 |  |  |  |  |  | 
TMEM201 (protein, UniProt Q5SNT2 1-666, looked up) Transmembrane protein 201: MEGVSALLARCPTAGLAGGLGVTACAAAGVLLYRIARRMKPTHTMVNCWFCNQDTLVPYGNRNCWDCPHCEQYNGFQENGDYNKPIPAQYLEHLNHVVSSAPSLRDPSQPQQWVSSQVLLCKRCNHHQTTKIKQLAAFAPREEGRYDEEVEVYRHHLEQMYKLCRPCQAAVEYYIKHQNRQLRALLLSHQFKRREADQTHAQNFSSAVKSPVQVILLRALAFLACAFLLTTALYGASGHFAPGTTVPLALPPGGNGSATPDNGTTPGAEGWRQLLGLLPEHMAEKLCEAWAFGQSHQTGVVALGLLTCLLAMLLAGRIRLRRIDAFCTCLWALLLGLHLAEQHLQAASPSWLDTLKFSTTSLCCLVGFTAAVATRKATGPRRFRPRRFFPGDSAGLFPTSPSLAIPHPSVGGSPASLFIPSPPSFLPLANQQLFRSPRRTSPSSLPGRLSRALSLGTIPSLTRADSGYLFSGSRPPSQVSRSGEFPVSDYFSLLSGSCPSSPLPSPAPSVAGSVASSSGSLRHRRPLISPARLNLKGQKLLLFPSPPGEAPTTPSSSDEHSPHNGSLFTMEPPHVPRKPPLQDVKHALDLRSKLERGSACSNRSIKKEDDSSQSSTCVVDTTTRGCSEEAATWRGRFGPSLVRGLLAVSLAANALFTSVFLYQSLR | 1 | 1 |  |  |  |  |  | 
PSD4 (protein, UniProt Q8NDX1 1-1056, looked up) PH and SEC7 domain-containing …: MMGDYRLPDHPQPMEILNLYLGDSLEPHPGECPRETCSHEDPPEPFEEQTWATDPPEPTRQNVPPWGSGVELTHLGSWVHQDGLEPCQEQTRATDPPESTRQDAPPWGSGVELTHLGSPSAQREHRQNTASPGSPVNSHLPGSPKQNRSTSTQVVFWAGILQAQMCVLDLEEELEKTEGLKAGLKCCLPTPPVDLPGDTGLHSSPPENEDSGEDSSEPEGEGQAWLREGTPDSSPQWGAEEESMFFSNPLFLASPCSENSASGECFSWGASDSHAGVRTGPESPATLEPPLPEDTVLWELESEPDLGDGAAISGHCTPPFPVPIYKPHSICWASVAAAEGAPAAPPGHGESEGDRLGPAPSAAPCVDEALTWESGCVGSDLGPAAHPVQPWASLSPEGWQRGGPFWPQVTLNSQDRDEREGGHPQESLPCTLAPCPWRSPASSPEPSSPESESRGPGPRPSPASSQEGSPQLQHHSSGILPKWTLDASQSSLLETDGEQPSSLKKKEAGEAPKPGEEVKSEGTARPAETGDVQPDIHLTSAEHENLRTPMNSSWLPGSPMPQAQSPEEGQRPPAGDKLANGVRNNKVAWNLASRLYRLEGFRKSEVAAYLQKNNDFSRAVAEEYLSFFQFGGQSLDRALRSFLQALVLSGETQERERILYQFSRRFHHCNPGIFPSVDSVHTLTCAIMLLNTDLHGQNIGKSMSCQEFITNLNGLRDGGNFPKELLKALYWSIRSEKLEWAVDEEDTARPEKAQPSLPAGKMSKPFLQLAQDPTVPTYKQGILARKMHQDADGKKTPWGKRGWKMFHTLLRGMVLYFLKQGEDHCLEGESLVGQMVDEPVGVHHSLATPATHYTKKPHVFQLRTADWRLYLFQAPTAKEMSSWIARINLAAATHSAPPFPAAVGSQRRFVRPILPVGPAQSSLEEQHRSHENCLDAAADDLLDLQRNLPERRGRGRELEEHRLRKEYLEYEKTRYETYVQLLVARLHCPSDALDLWEEQLGREAGGTREPKLSLKKSHSSPSLHQDEAPTTAKVKRNISERRTYRKIIPKRNRNQL | 1 | 1 |  |  |  |  |  | 
ETFA (protein, UniProt P13804 20-333, looked up) Electron transfer …: QSTLVIAEHANDSLAPITLNTITAATRLGGEVSCLVAGTKCDKVAQDLCKVAGIAKVLVAQHDVYKGLLPEELTPLILATQKQFNYTHICAGASAFGKNLLPRVAAKLEVAPISDIIAIKSPDTFVRTIYAGNALCTVKCDEKVKVFSVRGTSFDAAATSGGSASSEKASSTSPVEISEWLDQKLTKSDRPELTGAKVVVSGGRGLKSGENFKLLYDLADQLHAAVGASRAAVDAGFVPNDMQVGQTGKIVAPELYIAVGISGAIQHLAGMKDSKTIVAINKDPEAPIFQVADYGIVADLFKVVPEMTEILKKK | 1 | 1 |  |  | 4 | 3 | 4 | 4
DCAF13 (protein, UniProt Q9NV06 1-445, looked up) DDB1- and CUL4-associated …: MKVKMLSRNPDNYVRETKLDLQRVPRNYDPALHPFEVPREYIRALNATKLERVFAKPFLASLDGHRDGVNCLAKHPEKLATVLSGACDGEVRIWNLTQRNCIRTIQAHEGFVRGICTRFCGTSFFTVGDDKTVKQWKMDGPGYGDEEEPLHTILGKTVYTGIDHHWKEAVFATCGQQVDIWDEQRTNPICSMTWGFDSISSVKFNPIETFLLGSCASDRNIVLYDMRQATPLKKVILDMRTNTICWNPMEAFIFTAANEDYNLYTFDMRALDTPVMVHMDHVSAVLDVDYSPTGKEFVSASFDKSIRIFPVDKSRSREVYHTKRMQHVICVKWTSDSKYIMCGSDEMNIRLWKANASEKLGVLTSREKAAKDYNQKLKEKFQHYPHIKRIARHRHLPKSIYSQIQEQRIMKEARRRKEVNRIKHSKPGSVPLVSEKKKHVVAVVK | 1 | 1 |  |  |  |  |  | 
